In the assay the target is T1, endogenous PSAT1 (phosphoserine aminotransferase 1) (human (endogenous in HEK293T, A549, PC9)) (UniProt Q9Y617).
T1 sequence: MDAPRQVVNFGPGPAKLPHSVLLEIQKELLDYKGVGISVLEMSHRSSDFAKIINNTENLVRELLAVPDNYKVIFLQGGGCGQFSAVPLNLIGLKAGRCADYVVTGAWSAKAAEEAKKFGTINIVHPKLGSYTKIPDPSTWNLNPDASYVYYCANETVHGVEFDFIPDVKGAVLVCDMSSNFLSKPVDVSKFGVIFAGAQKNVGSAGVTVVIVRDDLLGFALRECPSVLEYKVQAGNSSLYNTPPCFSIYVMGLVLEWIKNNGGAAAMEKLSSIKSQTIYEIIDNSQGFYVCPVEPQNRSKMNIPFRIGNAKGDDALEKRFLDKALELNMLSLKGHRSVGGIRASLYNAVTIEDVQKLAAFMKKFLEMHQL
Briefly: co-IP; HEK293T transfected with FLAG-PKM2 WT or mutants (MT1-4); endogenous PSAT1 precipitated with anti-PSAT1 from 1 mg lysate (Protein G Dynabeads); immunoblot. Background: In western blotting, separated proteins are transferred to a membrane and probed.

Amino acid sequences for entries named in this document (tags omitted). A change or cut given only in a name is not applied to a line headed by its entry.
UniProt P14618: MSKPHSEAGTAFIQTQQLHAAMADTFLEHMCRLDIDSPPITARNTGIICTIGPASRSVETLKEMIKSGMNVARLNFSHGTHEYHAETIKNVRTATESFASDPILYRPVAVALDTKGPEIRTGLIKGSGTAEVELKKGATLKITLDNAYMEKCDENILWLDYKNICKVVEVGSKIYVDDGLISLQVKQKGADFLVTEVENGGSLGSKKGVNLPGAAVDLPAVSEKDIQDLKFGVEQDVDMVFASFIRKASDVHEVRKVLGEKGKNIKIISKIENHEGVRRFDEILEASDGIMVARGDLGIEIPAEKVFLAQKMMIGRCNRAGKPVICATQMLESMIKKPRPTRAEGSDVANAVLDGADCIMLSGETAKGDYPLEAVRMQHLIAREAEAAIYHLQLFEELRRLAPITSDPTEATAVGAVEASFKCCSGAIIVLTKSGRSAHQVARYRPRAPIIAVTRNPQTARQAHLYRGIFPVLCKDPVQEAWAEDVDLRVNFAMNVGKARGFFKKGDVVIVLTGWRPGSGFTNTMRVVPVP

No constants are given. Whether binding was seen depends on the method and setting. In cells and extracts the contact can be indirect. Binding calls can cover weak binding; strength is not graded here.

In the case of “FLAG-PKM2 mutant MT4 (from UniProt P14618) (enzyme)”, the binding entry was “binds”.

On to “FLAG-PKM2 mutant MT1 (from UniProt P14618) (enzyme)”, for which the binding result is on record as “binds”.

Consider “FLAG-PKM2 mutant MT2 (from UniProt P14618) (enzyme)”, for which the binding entry is reported as “binds”.

These data come from publication PMC8391706.
